Experimental data: PubChem BioAssay AID504784 (Drosophila RNAi Screening Center, 2011)
Test: 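Search for regulators of lipid droplet storage in oleate-fed fly cells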 (primary screen). Cells: Drosophila Kc167 embryonic cells. Knock-down reagent: long dsRNA against Drosophila genes, about 250 ng dsRNA per well. Time to read-out: 4 days. Treatment: cells fed 400 µM oleic acid bound to BSA. Measured: 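Cells imaged and segmented; ratio of lipid droplet area to nuclear area, log-transformed, then normalised as a B-score over the screen; higher means more stored lipid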. Scale: droplet/nuclear area B-score: higher = more stored lipid (overstorage).
The screen tested about 17,000 reagents; shown is a random part of those with a known target gene and a result. 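Each column is one replicate's B-score; the combined score over replicates was not deposited, so single values may mislead.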 A plus sign joins genes that one reagent is predicted to hit. Further read-outs or replicates are left out here.

target gene | PubChem SID | droplet/nuclear area B-score, replicate 1
RhoGAP92B (Rho GTPase activating protein at 92B) | SID104194299 | -0.454
RhoGAP92B (Rho GTPase activating protein at 92B) | SID104195429 | 0.528
sa (spermatocyte arrest) | SID104191441 | -0.00649
a6 | SID104198525 | 1.55
Atet (ABC transporter expressed in trachea) | SID104180055 | -0.0918
CG13699 | SID104189840 | 1.63
eg (eagle) | SID104191677 | -0.276
Corin | SID104186610 | -1.71
anne (anne boleyn) | SID104196895 | 1.48
Ptp69D (Protein tyrosine phosphatase 69D) | SID104191050 | 1.18
Opa1 (Optic atrophy 1) | SID104186983 | 1.38
Obp56g (Odorant-binding protein 56g) | SID104186224 | -0.265
gammaTub37C (gamma-Tubulin at 37C) | SID104183327 | 0.841
Vlet (Valette) | SID104199637 | 1.52
CG31523 | SID104191801 | -0.0839
CG31523 | SID104192129 | 1.32
Ttc26 (Tetratricopeptide repeat domain 26) | SID104195383 | -0.829
CG8321 | SID104186940 | -0.689
CG2577 | SID104199655 | 2.6
CG2577 | SID104202666 | 2.48
CG17036 | SID104182356 | 1.76
Pex11ab (Peroxin 11a/b) | SID104186937 | 2.96
Cpr49Ab (Cuticular protein 49Ab) | SID104185133 | -0.254
CG4968 | SID104182586 | 0.369
CG17325 + CG42305 | SID104182394 | 1.41
Or22a (Odorant receptor 22a) | SID104180556 | 2.55
atl (atlastin) | SID104195881 | -1.15
CG4476 | SID104190216 | 0.289
CG12693 | SID104197674 | 0.0271
Alp6 (Alkaline phosphatase 6) | SID104186502 | -0.284
Rab21 | SID104200760 | -0.364
Tsp66E (Tetraspanin 66E) | SID104189475 | 0.215
Cyp1 (Cyclophilin 1) | SID104200026 | -0.624
Rrp1 (Recombination repair protein 1) | SID104180576 | 0.0634
DIP2 (DISCO Interacting Protein 2) | SID104188374 | -0.0776
CG31922 | SID104201380 | 1.72
Slik (Sterile20-like kinase) | SID104184263 | -1.45
Taf11 (TBP-associated factor 11) | SID104183240 | -0.604
Cec-Psi1 (Cecropin pseudogene 1) | SID104201568 | -0.16
Ubx (Ultrabithorax) | SID104196683 | -0.436
CG30048 | SID104201741 | -0.125
Or19b + Or19a | SID104202019 | 0.696
CG13004 | SID104199315 | -0.242
RpS4 (Ribosomal protein S4) | SID104191064 | 3.78
CG15152 | SID104182245 | 0.742
CG14740 | SID104194752 | -0.0118
CG13427 | SID104186181 | 0.11
CG13404 | SID104199328 | 0.889
tacc (transforming acidic coiled-coil protein) | SID104191811 | -1.63
tacc (transforming acidic coiled-coil protein) | SID104192180 | -1.79
Lsd-2 (Lipid storage droplet-2) | SID104199935 | -1.84
CG13138 | SID104182027 | -0.0166
CG3081 | SID104198363 | 0.186
CG5500 | SID104195612 | -0.152
Vav (Vav guanine nucleotide exchange factor) | SID104200176 | -0.0663
CG15312 | SID104197792 | 2.39
CG12419 (retired record) | SID104194305 | -2.79
Cdc37 (Cell division cycle 37) | SID104188440 | 0.736
EMC1 (ER membrane protein complex subunit 1) | SID104195247 | 2.15
CG30089 | SID104185918 | -0.0585
CG30089 | SID104185919 | 1.01
CG30089 | SID104186059 | 0.213
CG30089 | SID104186060 | 0.485
CG30089 | SID104201374 | -3.41
bgcn (benign gonial cell neoplasm) | SID104183854 | -0.937
bgcn (benign gonial cell neoplasm) | SID104183855 | -2.82
CG42237 | SID104199683 | 0.97
CG12481 | SID104199253 | -0.592
Tom7 (Translocase of outer membrane 7) | SID104184927 | 0.266
Tom7 (Translocase of outer membrane 7) | SID104186905 | -0.171
MtnD (Metallothionein D) | SID104202110 | 0.242
tsr (twinstar) | SID104184510 | 2.02
VAChT + ChAT | SID104193104 | 1.4
Jhbp15 (Juvenile hormone binding protein 15) | SID104195009 | 0.332
CG8562 | SID104190787 | 0.4
CG12831 | SID104185971 | -0.167
Invadolysin | SID104195319 | 0.265
CR31541 (retired record) | SID104201511 | -0.148
Or30a (Odorant receptor 30a) | SID104183177 | -0.00317
Rfk (Riboflavin kinase) | SID104195246 | 2.17
Hmgcr (HMG Coenzyme A reductase) | SID104196496 | 1.23
S (Star) | SID104180577 | 0.0135
fax (failed axon connections) | SID104191137 | 0.00509
REPTOR (Repressed by TOR) | SID104194418 | 0.0152
CG7386 | SID104190624 | -1.86
CG6726 | SID104195893 | 1.53
CG5026 | SID104190262 | 0.642
RfC4 (Replication factor C subunit 4) | SID104188483 | -1.82
TyrRII (Tyramine receptor II) | SID104194942 | 2.69
CG4267 | SID104180439 | 0.0484
CG4250 | SID104184247 | -0.298
CG4757 | SID104193922 | -1.28
CG14966 | SID104188217 | -2.23
CG42490 (retired record) | SID104181441 | 0.789
Atg9 (Autophagy-related 9) | SID104186640 | 0.065
Cpr30F (Cuticular protein 30F) | SID104182700 | -0.608
Cby (Chibby) | SID104194383 | 0.00145
Diap1 (Death-associated inhibitor of apoptosis 1) | SID104191196 | -4.44
CG7006 | SID104195961 | -0.748
CG31370 | SID104201194 | -1.75
Usp32 (Ubiquitin specific protease 32) | SID104190771 | -1.2
CG10184 | SID104193996 | -0.503
CG4133 | SID104180431 | 0.362
CG4133 | SID104202479 | -0.489
CG32095 | SID104202029 | -0.00241

Records listed so far whose gene name begins with T or t (9):
target gene | PubChem SID | droplet/nuclear area B-score, replicate 1
Ttc26 (Tetratricopeptide repeat domain 26) | SID104195383 | -0.829
Tsp66E (Tetraspanin 66E) | SID104189475 | 0.215
Taf11 (TBP-associated factor 11) | SID104183240 | -0.604
tacc (transforming acidic coiled-coil protein) | SID104191811 | -1.63
tacc (transforming acidic coiled-coil protein) | SID104192180 | -1.79
Tom7 (Translocase of outer membrane 7) | SID104184927 | 0.266
Tom7 (Translocase of outer membrane 7) | SID104186905 | -0.171
tsr (twinstar) | SID104184510 | 2.02
TyrRII (Tyramine receptor II) | SID104194942 | 2.69
